No constants are given. Whether binding was seen depends on the method and setting. For part of these data: In cells and extracts the contact can be indirect. Some results given as binding are weak or reduced against the parent protein; the word gives no strength.
Tests used:
[1] = target: biotinylated recombinant full-length HSF2 (UniProt Q03933); experiment: BLI
human HSF2-YFP (human) = human HSF2-YFP (human) (UniProt Q03933); experiment: co-IP
[2] = target: KIX-GST, wild type (KIX domain of CBP) (UniProt Q92793); experiment: co-IP
HDAC1-GFP = HDAC1-GFP (UniProt Q13547); experiment: co-IP

By UniProt entry, the sequences of proteins in these tests, tags left out. Chains listed by the source or under a name are the forms on record and can include a tag or linker. Residues count along the entry.
UniProt Q03933: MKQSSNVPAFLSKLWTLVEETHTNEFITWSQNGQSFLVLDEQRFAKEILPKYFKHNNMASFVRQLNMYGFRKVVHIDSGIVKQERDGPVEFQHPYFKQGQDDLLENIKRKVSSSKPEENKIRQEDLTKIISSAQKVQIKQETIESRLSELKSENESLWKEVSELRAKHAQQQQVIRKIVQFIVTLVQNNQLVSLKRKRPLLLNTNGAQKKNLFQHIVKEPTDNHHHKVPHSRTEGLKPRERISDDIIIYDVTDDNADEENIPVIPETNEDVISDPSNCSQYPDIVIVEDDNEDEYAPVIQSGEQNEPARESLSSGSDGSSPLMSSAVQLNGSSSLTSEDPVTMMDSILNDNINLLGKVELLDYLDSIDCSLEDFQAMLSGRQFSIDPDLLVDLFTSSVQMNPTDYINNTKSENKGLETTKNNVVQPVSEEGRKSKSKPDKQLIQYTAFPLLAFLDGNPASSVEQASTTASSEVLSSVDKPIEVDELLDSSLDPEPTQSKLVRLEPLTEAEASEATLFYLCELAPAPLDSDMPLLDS
UniProt Q13547: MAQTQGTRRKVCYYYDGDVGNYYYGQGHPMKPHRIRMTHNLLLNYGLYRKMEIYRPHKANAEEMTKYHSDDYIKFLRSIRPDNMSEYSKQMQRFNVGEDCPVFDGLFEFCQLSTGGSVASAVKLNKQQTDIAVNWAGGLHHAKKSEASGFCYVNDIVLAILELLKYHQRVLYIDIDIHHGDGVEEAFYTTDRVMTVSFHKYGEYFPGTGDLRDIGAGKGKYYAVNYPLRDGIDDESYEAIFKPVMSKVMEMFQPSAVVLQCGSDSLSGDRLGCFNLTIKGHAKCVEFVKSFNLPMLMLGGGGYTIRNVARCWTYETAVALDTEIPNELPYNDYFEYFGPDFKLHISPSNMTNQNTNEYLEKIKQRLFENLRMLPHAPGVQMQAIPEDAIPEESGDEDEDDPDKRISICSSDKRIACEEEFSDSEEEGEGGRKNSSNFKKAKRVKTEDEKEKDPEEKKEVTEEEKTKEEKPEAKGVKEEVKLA
CBP Bromodomain, 6His-tagged (P45481, residues 1096-1205): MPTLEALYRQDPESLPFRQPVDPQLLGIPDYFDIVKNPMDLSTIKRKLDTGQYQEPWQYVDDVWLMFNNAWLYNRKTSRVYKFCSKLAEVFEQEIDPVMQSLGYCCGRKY
CBP RING domain, 6His-tagged (P45481, residues 1205-1279): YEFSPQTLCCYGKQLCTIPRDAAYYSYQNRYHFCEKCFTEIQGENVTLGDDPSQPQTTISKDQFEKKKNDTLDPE
CBP PHD domain, 6His-tagged (P45481, residues 1280-1321): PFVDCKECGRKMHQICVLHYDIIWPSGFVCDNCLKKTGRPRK
CBP HAT domain, 6His-tagged (P45481, residues 1322-1700): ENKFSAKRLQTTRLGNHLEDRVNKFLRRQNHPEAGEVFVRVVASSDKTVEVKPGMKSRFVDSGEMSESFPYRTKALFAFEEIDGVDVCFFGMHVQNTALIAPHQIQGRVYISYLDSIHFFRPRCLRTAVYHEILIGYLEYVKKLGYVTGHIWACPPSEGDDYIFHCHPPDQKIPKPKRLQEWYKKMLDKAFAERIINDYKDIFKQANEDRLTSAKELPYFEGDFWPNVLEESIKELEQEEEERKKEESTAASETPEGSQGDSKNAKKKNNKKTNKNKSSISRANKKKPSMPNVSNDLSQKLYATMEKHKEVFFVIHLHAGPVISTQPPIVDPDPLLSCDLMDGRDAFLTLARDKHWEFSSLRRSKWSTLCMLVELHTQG
UniProt Q09472: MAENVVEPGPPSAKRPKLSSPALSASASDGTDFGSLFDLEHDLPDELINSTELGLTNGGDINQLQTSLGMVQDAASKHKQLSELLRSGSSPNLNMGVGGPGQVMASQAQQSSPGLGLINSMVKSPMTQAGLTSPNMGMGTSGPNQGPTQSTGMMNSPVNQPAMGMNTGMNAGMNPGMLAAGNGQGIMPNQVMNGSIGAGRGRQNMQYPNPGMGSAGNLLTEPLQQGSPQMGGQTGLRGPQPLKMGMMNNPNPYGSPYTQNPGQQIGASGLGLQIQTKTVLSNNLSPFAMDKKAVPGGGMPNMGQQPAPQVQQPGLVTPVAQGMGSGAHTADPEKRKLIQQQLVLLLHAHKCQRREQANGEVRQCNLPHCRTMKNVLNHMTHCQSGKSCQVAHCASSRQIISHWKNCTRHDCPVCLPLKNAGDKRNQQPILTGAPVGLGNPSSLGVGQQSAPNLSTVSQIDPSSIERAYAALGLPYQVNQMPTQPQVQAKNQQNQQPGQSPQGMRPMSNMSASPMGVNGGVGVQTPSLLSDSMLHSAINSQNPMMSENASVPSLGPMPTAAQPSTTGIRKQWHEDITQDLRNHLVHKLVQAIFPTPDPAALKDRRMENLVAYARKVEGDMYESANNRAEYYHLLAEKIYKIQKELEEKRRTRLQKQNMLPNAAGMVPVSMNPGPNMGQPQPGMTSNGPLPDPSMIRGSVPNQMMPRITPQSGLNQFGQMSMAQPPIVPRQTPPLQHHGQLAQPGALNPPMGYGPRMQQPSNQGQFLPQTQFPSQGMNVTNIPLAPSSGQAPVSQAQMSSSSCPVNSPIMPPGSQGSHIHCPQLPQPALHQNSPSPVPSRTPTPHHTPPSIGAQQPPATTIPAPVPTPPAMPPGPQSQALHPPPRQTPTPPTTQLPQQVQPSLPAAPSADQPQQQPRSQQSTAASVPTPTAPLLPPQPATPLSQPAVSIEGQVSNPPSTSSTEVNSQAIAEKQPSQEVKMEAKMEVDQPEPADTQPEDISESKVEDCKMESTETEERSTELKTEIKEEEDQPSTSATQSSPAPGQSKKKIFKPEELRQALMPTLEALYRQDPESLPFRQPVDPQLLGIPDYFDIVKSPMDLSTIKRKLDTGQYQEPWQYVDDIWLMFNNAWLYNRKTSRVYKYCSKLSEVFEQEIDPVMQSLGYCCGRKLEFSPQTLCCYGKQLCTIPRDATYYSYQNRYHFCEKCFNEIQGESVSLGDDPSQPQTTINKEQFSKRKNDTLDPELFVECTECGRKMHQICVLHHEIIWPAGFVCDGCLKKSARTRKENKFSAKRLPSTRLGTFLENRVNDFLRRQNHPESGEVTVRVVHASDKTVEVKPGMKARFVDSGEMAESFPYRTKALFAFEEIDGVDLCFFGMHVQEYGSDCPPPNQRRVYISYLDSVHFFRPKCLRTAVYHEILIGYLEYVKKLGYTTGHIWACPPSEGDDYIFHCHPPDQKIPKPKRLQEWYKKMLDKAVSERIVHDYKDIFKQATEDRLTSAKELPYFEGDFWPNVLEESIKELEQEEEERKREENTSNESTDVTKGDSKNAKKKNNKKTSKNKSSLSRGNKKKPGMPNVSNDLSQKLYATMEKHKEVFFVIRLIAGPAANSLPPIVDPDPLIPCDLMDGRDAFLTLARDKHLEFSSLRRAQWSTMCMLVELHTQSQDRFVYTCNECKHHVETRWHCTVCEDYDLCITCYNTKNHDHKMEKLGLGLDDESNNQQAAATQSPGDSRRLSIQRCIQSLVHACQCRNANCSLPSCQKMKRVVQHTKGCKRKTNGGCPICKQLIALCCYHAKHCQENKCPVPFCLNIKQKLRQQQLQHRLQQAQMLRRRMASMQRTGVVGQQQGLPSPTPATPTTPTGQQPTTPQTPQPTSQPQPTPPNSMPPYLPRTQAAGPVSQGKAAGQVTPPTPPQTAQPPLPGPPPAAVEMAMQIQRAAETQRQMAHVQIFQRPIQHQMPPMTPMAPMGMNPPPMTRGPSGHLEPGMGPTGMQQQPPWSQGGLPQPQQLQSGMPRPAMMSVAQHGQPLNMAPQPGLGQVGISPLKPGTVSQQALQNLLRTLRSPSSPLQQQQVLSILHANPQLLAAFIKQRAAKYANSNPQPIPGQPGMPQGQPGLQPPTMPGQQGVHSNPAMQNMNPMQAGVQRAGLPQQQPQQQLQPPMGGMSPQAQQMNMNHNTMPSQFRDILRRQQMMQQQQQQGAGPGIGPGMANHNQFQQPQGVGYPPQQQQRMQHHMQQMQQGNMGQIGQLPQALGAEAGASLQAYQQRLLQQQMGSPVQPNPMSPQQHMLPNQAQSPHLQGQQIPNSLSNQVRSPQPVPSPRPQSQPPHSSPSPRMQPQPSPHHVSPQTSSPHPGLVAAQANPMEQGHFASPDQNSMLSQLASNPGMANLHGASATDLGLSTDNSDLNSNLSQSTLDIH
UniProt P0DMV8: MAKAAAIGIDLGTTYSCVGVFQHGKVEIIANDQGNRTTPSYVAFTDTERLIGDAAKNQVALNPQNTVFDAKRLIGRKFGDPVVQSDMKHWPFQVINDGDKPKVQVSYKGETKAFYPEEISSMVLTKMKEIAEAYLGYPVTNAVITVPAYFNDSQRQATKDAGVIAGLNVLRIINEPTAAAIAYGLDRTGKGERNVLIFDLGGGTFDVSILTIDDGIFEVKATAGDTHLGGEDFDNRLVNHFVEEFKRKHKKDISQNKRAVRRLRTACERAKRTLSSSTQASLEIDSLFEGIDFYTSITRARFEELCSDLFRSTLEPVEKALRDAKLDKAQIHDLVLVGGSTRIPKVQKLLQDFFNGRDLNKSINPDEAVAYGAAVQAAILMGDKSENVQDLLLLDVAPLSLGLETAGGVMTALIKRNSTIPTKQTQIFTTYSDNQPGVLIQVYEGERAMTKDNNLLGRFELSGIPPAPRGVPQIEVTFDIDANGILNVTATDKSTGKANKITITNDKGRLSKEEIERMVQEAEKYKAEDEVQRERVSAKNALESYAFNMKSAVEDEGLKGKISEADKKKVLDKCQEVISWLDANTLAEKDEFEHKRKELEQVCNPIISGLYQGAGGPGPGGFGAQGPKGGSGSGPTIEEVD

| Substance | binding [1] | further results |
| --- | --- | --- |
| CBP Bromodomain, 6His-tagged (from UniProt P45481 1096-1205) (domain or fragment) | no binding (tested: 100 nM) | – |
| CBP HAT domain, 6His-tagged (from UniProt P45481 1322-1700) (domain or fragment) | no binding (tested: 100 nM) | – |
| CBP PHD domain, 6His-tagged (from UniProt P45481 1280-1321) (domain or fragment) | binds | – |
| CBP RING domain, 6His-tagged (from UniProt P45481 1205-1279) (domain or fragment) | no binding (tested: 100 nM) | – |
| CBP-HA (from UniProt Q92793 1-2442) | – | binding (human HSF2-YFP (human)): binds |
| EP300-HA (from UniProt Q09472 1-2414) | – | binding (human HSF2-YFP (human)): binds |
| HSP70 (from UniProt P0DMV8 1-641) | binds | – |
| SNAP-HSF2 (human HSF2-Snap, wild type) (from UniProt Q03933 1-536) | – | binding [2]: binds |
| human HSF2-Myc (from UniProt Q03933 1-536) | – | binding (HDAC1-GFP): binds |
